# Measured values taken from US8785423B2, “Compositions and methods of inducing endoplasmic reticulum stress response for the treatment of cell proliferative diseases” (University of Maryland, Baltimore, priority 2008, dated 2014).
# System: PC-3 cells
# Test: Microarray global gene expression (GeneChip Human Genome Focus Array, DAVID ontologies)
# Format: cell-based
# Settings: PC-3, 20 μM, 24 hrs
# Method: To perform the microarray experiments, PC-3 cells were treated with (95% ethanol) or 20 μM of VN/124-1. After 24 hr exposure to the agent, cells were pelleted and lysed using Qiagen RLT (Qiagen Inc.; Valencia, Calif.) buffer containing 1% β-mercaptoethanol. Total RNA was isolated using the Qiagen RNeasy-Mini Kit following manufacturer's protocol. Quantity and purity were assessed by absorption at 260 nm and 280 nm. RNA integrity was assessed using an Agilent Bioanalyzer (Agilent Technologies; Santa Clara, Calif.). Experiments were carried out in duplicate, with triplicate samples (dosed independently on 3 different days) from each experiment pooled for analysis on a single chip.
# Samples were hybridized to a GeneChip® Human Genome Focus Array (Affymetrix Inc., U.S.A.) and analyzed using an Affymetrix Genechip Scanner 3000 according to manufacturer's protocol. Gene ontologies were identified using the online Database for Annotation, Visualization, and integrated Discovery (DAVID) provided by the National Institute of Allergy and Infectious Diseases and the National Institute of Health. […] Stringent criteria of a minimum EASE/P-Value threshold of 0.001 and a gene count threshold of 5 were used to identify altered gene ontologies.
compound,measurement,value
C[C@]12CC[C@H](O)CC1=CC[C@@H]1[C@@H]2CC[C@]2(C)C(n3cnc4ccccc43)=CC[C@@H]12 [VN/124-1],"%, down-regulated ontology Biopolymer Metabolism",55.10%
same,"%, down-regulated ontology Cell Cycle",32.65%
same,"%, down-regulated ontology DNA Metabolism",38.78%
same,"%, down-regulated ontology DNA Replication",34.69%
same,"%, down-regulated ontology DNA-Dependent DNA Replication",20.41%
same,"%, down-regulated ontology Macromolecule Metabolism",57.14%
same,"%, down-regulated ontology Nucleobase, Nucleoside, Nucleotide and Nucleic Acid Metabolism",48.98%
same,"%, down-regulated ontology Regulation of Cell Cycle",20.41%
same,"%, down-regulated ontology Regulation of Progression Through Cell Cycle",20.41%
same,"%, down-regulated ontology Second-Messenger-Mediated Signaling",12.24%
same,"%, up-regulated ontology Amine Metabolism",13.64%
same,"%, up-regulated ontology Amino Acid Metabolism",12.12%
same,"%, up-regulated ontology Amino Acid and Derivative Metabolism",12.12%
same,"%, up-regulated ontology Carboxylic Acid Metabolism",13.64%
same,"%, up-regulated ontology Development",27.27%
same,"%, up-regulated ontology Negative Regulation of Biological Process",18.18%
same,"%, up-regulated ontology Negative Regulation of Cellular Process",16.67%
same,"%, up-regulated ontology Nitrogen Compound Metabolism",13.64%
same,"%, up-regulated ontology Organic Acid Metabolism",13.64%
same,"%, up-regulated ontology Response to External Stimulus",13.64%
same,"%, up-regulated ontology Response to Stress",24.24%
same,"Count, down-regulated ontology Biopolymer Metabolism",27
same,"Count, down-regulated ontology Cell Cycle",16
same,"Count, down-regulated ontology DNA Metabolism",19
same,"Count, down-regulated ontology DNA Replication",17
same,"Count, down-regulated ontology DNA-Dependent DNA Replication",10
same,"Count, down-regulated ontology Macromolecule Metabolism",28
same,"Count, down-regulated ontology Nucleobase, Nucleoside, Nucleotide and Nucleic Acid Metabolism",24
same,"Count, down-regulated ontology Regulation of Cell Cycle",10
same,"Count, down-regulated ontology Regulation of Progression Through Cell Cycle",10
same,"Count, down-regulated ontology Second-Messenger-Mediated Signaling",6
same,"Count, up-regulated ontology Amine Metabolism",9
same,"Count, up-regulated ontology Amino Acid Metabolism",8
same,"Count, up-regulated ontology Amino Acid and Derivative Metabolism",8
same,"Count, up-regulated ontology Carboxylic Acid Metabolism",9
same,"Count, up-regulated ontology Development",18
same,"Count, up-regulated ontology Negative Regulation of Biological Process",12
same,"Count, up-regulated ontology Negative Regulation of Cellular Process",11
same,"Count, up-regulated ontology Nitrogen Compound Metabolism",9
same,"Count, up-regulated ontology Organic Acid Metabolism",9
same,"Count, up-regulated ontology Response to External Stimulus",9
same,"Count, up-regulated ontology Response to Stress",16
